At least one read-out could not be matched to a standard name with certainty.
Biological target: T1, PAD1 (Homo sapiens, UniProt Q9ULC6)
T1 sequence (Q9ULC6 1-663): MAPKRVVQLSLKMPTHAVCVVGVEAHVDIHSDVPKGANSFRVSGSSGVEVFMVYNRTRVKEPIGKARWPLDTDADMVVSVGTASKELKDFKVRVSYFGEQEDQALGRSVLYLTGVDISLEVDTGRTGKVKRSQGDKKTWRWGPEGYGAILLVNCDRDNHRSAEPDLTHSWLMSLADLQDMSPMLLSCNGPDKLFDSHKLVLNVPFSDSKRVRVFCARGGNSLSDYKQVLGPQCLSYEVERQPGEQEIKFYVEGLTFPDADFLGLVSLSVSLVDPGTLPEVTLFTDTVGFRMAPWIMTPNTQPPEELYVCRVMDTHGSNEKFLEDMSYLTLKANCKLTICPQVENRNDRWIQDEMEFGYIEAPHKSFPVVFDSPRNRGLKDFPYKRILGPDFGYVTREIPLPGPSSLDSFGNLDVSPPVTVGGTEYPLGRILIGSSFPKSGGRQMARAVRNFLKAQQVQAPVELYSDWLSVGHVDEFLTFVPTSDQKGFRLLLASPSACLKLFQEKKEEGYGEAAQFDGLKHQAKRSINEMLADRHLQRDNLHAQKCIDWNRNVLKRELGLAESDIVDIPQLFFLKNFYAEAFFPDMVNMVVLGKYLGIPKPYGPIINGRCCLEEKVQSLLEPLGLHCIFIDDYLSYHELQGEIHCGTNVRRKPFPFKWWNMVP
Test: Kinetic characterization of ApoA1 as a PAD substrate using Rh-PG
Assay type: biochemical
Conditions: recombinant huApoA1, Rh-PG readout

Substance: ApoA1: apolipoprotein-A1, a key component of High Density Lipoprotein; recombinant huApoA1 tested as PAD substrate
- kcat/Km as PAD1 substrate: 19600 M⁻¹ s⁻¹
